# Test results reported in PubChem BioAssay AID504467 (National Center for Advancing Translational Sciences (NCATS), 2011).
# Hit rate of the full screen: of about 330,000 compounds, about 7,700 (2.3%) were called active. Inconclusive results, whose numbers are uncertain, are shown with a selection of clear calls. Calls follow the shape of the dose curve; as a rule, active = well fitted inhibition curve with a large enough effect; inconclusive = small, poorly fitted or top-dose-only effect, or effect the other way; inactive = flat fitted curve, though single readings scatter. Potencies beside an inconclusive call are fits to weak or partial responses and may not hold up.
# Experiment: qHTS screen for small molecules that inhibit ELG1-dependent DNA repair in human embryonic kidney (HEK293T) cells expressing luciferase-tagged ELG1; also: nearly all actives have a fitted effect of over 55% in size
# Details: HEK293T ELG1-luciferase reporter, luminescence, 16 h, DNA damage induced by 5-fluorouridine; activity change, negative = inhibition: at 46.1 µM (top of the series)
# Method in brief: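 5-Fluorouridine DNA damage + compound/DMSO, 2,000 cells/well, 16 h, 37 °C/5% CO2. ONE-Glo, 30 min RT, luminescence. Readout = decrease in reporter signal.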
# % is scaled to controls: 0 for no effect and ±100 for the full control effect; potency is read from the fitted curve at half-maximal effect.
Structure (SMILES),Potency,"activity change, negative = inhibition"
Cc1c(C)n(-c2ccc(Cl)cc2)c2ncnc(N)c12,"inconclusive: 16.4 µM [inhibitor, single point]",
COc1nc(C)ccc1-c1noc(-c2cccs2)n1,"inconclusive: 2.59 µM [activator, full curve]",
CCOC(=O)c1c(C)oc2c1c(C(c1ccccc1)N1CCOCC1)c(O)c1ccccc12 (stereo unspecified),"inconclusive: 11.6 µM [activator, partial curve]",
CCCCn1c(N)c(N(CCC(C)C)C(=O)c2cccc(S(=O)(=O)N3CCN(C)CC3)c2)c(=O)[nH]c1=O,"inconclusive: 1.83 µM [inhibitor, partial curve, poor fit]",
Cn1c2ccccc2c2cc(C(=O)O)ccc21,,inactive: 4.96%
Nc1c(-c2ccccc2)cnn1-c1cccc([N+](=O)[O-])c1,"inconclusive: 18.4 µM [activator, partial curve]",
Cc1ccc(C(=O)N(c2ccccc2)C2CC(C)N(C(=O)c3ccco3)c3ccccc32)cc1 (stereo unspecified),"inconclusive: 13 µM [inhibitor, partial curve]",
Nn1c(=O)c2ccccc2n2c(SCc3ccc(C(F)(F)F)cc3)nnc12,"inconclusive: 23.1 µM [inhibitor, partial curve]",
Cc1ccc(-c2csc(N(CCCN(C)C)C(=O)c3ccco3)n2)cc1,,inactive: -6.51%
COCCN1C(=O)C(=O)/C(=C(/O)c2ccc(S(=O)(=O)N3CCOCC3)cc2)C1c1cccc(Cl)c1 (stereo unspecified),,inactive: -4.72%
CC(C)(CC(=O)O)CC(=O)Nc1cc(C(F)(F)F)cc(C(F)(F)F)c1,,inactive: -28.8%
COc1ccc(CN2CCN(CC3CC3)CC2CCO)cc1C (stereo unspecified),,inactive: 5.1%
O=C(COC(=O)c1ccc2c(c1)OCCO2)NC1CCCCC1,"inconclusive: 10 µM [activator, single point]",
CCCCc1nc2cc(C(=O)N3CCCC(OCCC)C3)ccc2o1 (stereo unspecified),"inconclusive: 16.4 µM [activator, partial curve]",
C=CC[C@@H](Cc1ccc(F)cc1)C(=O)OC[C@@H]1CCCN1C(=O)[C@@H](CC=C)CC(=O)N(CCO)Cc1ccccc1,"inconclusive: 8.2 µM [inhibitor, single point]",
Cc1ccc2nc(-c3ccncc3)cc(C(=O)N3CCOCC3)c2c1,,inactive: -3.05%
CC(C)(C)c1ccc(-n2ncc3c2CCCC3NC(=O)CN2CCCCC2=O)cc1 (stereo unspecified),,inactive: -10%
Cc1ccccc1CS(=O)(=O)c1snnc1C,,inactive: 7.64%
CCC(C)NCCOc1cc(C)cc(C)c1C (stereo unspecified),,inactive: 3.33%
CCC1(CC)NC(=O)N(CC(=O)N2CCc3ccccc32)C1=O,"inconclusive: 32.6 µM [activator, partial curve, poor fit]",
CCn1cc([N+](=O)[O-])c(C(=O)N2N=C(c3ccc4ccccc4c3)CC2c2cc(Br)ccc2O)n1 (stereo unspecified),"inconclusive: 25.9 µM [inhibitor, single point]",
CCOC(=O)c1c(S(=O)(=O)NCC(=O)Nc2ccc(OC)cc2)c(C)n(C)c1C,,inactive: 17.4%
O=C(c1ccccc1)N1N=C(c2ccccc2)CC1(O)C(F)(F)F (stereo unspecified),,inactive: 0%
CSc1ccc(/C=N/N(C)S(=O)(=O)c2ccc(C)cc2)cc1,,inactive: -13.9%

Structure (SMILES),Potency,"activity change, negative = inhibition"
COc1ccc(OC)c(S(=O)(=O)ON2C(=O)c3ccccc3C2=O)c1,,inactive: -1.01%
CC1CC(C)(C)NC(=S)N1CCC(=O)Nc1ccc2c(c1)OCCO2 (stereo unspecified),,inactive: 19.1%
CN(C)/C=N/C(=S)Nc1ccc(Cl)cc1,"inconclusive: 14.6 µM [activator, partial curve]",
Cc1cc(C)cc(NC(=O)Nc2ccc3c(c2)CCC3)c1,"inconclusive: 18.3 µM [activator, partial curve]",
COc1ccc(NC(C)C(=O)N/N=C/c2ccc([N+](=O)[O-])s2)cc1 (stereo unspecified),active: 18.3 µM,
COc1cc(/C=N/NC(=O)c2ccc(-n3cccc3)cc2)ccc1O,"inconclusive: 18.4 µM [inhibitor, single point]",
O=C(COc1ccc(F)c(Cl)c1)c1ccc[nH]1,"inconclusive: 16.4 µM [activator, partial curve]",
CCCn1nc(NC(=O)COC)c2cc3cc(C)ccc3nc21,,inactive: 28.4%
COc1ccc(-c2ccc(CCC(=O)O)n2NC(=O)c2cccs2)cc1,"inconclusive: 16.4 µM [activator, single point]",
O=C(Nc1ccc(N2CCN(C(=O)c3ccco3)CC2)cc1)c1cccs1,"inconclusive: 5.17 µM [inhibitor, single point]",
O=C(Nc1ccc(N2CCOCC2)cc1)c1c(F)cccc1Cl,"inconclusive: 14.6 µM [activator, partial curve, poor fit]",
Cc1ccc(NC(=O)Nc2ccc3oc(C)nc3c2)cc1,"inconclusive: 1.84 µM [activator, full curve]",
COc1cc(/C=N/N2C(=O)C3C4C=CC(CC4)C3C2=O)ccc1O (stereo unspecified),"inconclusive: 11.6 µM [activator, partial curve]",
CC(C)CCNC(=O)c1sc2ccc(S(=O)(=O)N3CCCCC3)cc2c1N,"inconclusive: 29.1 µM [inhibitor, single point]",
O=C(/C=C/c1ccc(Cl)c([N+](=O)[O-])c1)Nc1ccc(NC(=O)c2ccco2)cc1,"inconclusive: 14.6 µM [activator, partial curve, poor fit]",
CNC(=O)c1ccc(-c2ccc(OC)cc2)s1,"inconclusive: 8.2 µM [activator, partial curve]",
O=C1[C@H](Oc2ccccc2)[C@@H](c2ccccc2)N1c1ccncc1,,inactive: 10.5%
Cc1ccc(-c2nc(NCCCO)c3ccccc3n2)cc1,"inconclusive: 29.1 µM [inhibitor, single point]",
CCn1c(=O)n(CC)c2cc(N3CCCC3)c(NC(=O)c3cccc(Cl)c3)cc21,"inconclusive: 23.1 µM [inhibitor, single point]",
COc1ccc(/C=C/C(=O)Nc2ccc(S(=O)(=O)N3CCOCC3)cc2)c(OC)c1,active: 23.1 µM,
CCCCNCc1cc(Br)c(OCC(=O)N2CCOCC2)c(OC)c1,,inactive: 5.63%
Cc1cccc(NC(=O)Nc2ccccc2[N+](=O)[O-])n1,"inconclusive: 20.6 µM [activator, single point]",
CCNC(=O)/C(C#N)=C/c1c(N2CC(C)OC(C)C2)nc2ccccn2c1=O (stereo unspecified),,inactive: -10.9%
COc1ccc2[nH]c3c(=O)n(CCCC(=O)NC4CCCCC4C)c(=S)[nH]c3c2c1 (stereo unspecified),,inactive: 23.6%

Structure (SMILES),Potency,"activity change, negative = inhibition"
COc1ccc(C(=O)Nc2ccc(NC(=O)c3ccccc3)cc2)cc1S(=O)(=O)N1CCOCC1,,inactive: -21.9%
COc1ccccc1C(=O)OCC(=O)NC12CC3CC(CC(C3)C1)C2,"inconclusive: 25.9 µM [activator, single point]",
CC(=O)NC(CCS(C)(=O)=O)C(=O)Nc1cccc2ccccc12 (stereo unspecified),"inconclusive: 0.259 µM [activator, full curve, poor fit]",
Cc1c(C#N)c(O)[nH]c(=O)c1N=Nc1ccc(Br)cc1C(=O)O,"inconclusive: 9.2 µM [inhibitor, partial curve, poor fit]",
O=C(Nc1ccc(N2CCOCC2)c(Cl)c1)c1ccc(Br)o1,"inconclusive: 2.06 µM [activator, partial curve]",
CC(OC(=O)c1oc2ccccc2c1COc1ccccc1)C(N)=O (stereo unspecified),,inactive: 16%
CC(=O)c1ccc(S(=O)(=O)Nc2cccc(-n3cnnn3)c2)cc1,,inactive: 14.3%
CC1=C(C(=O)OCC2CCCO2)C(c2coc3ccc(C)cc3c2=O)C2=C(CCCC2=O)N1 (stereo unspecified),"inconclusive: 29.1 µM [activator, single point]",
O=C(NCc1ccco1)C1CCCN1C(=O)Nc1ccc(Cl)cc1 (stereo unspecified),,inactive: -2.56%
COc1ccc(-c2cn3c(n2)CCC3)cc1,"inconclusive: 9.2 µM [activator, partial curve, poor fit]",
CCN1C(=O)C2(C(C#N)=C(N)Oc3n[nH]c(C(C)C)c32)c2ccccc21 (stereo unspecified),,inactive: 9.79%
O=C(NCCN1CCOCC1)c1ccc2ccccc2c1,"inconclusive: 14.6 µM [activator, partial curve]",
COc1ccccc1OCCNC(=O)c1ccccc1C,"inconclusive: 14.6 µM [activator, partial curve, poor fit]",
CN(CC(=O)Nc1ccccc1Cl)C(=O)COC(=O)c1nc(Cl)c(Cl)c(Cl)c1Cl,"inconclusive: 32.6 µM [inhibitor, single point]",
O=C(c1ccccc1)N1CCN(c2ccc(N3CCOCC3)nn2)CC1,,inactive: 7.29%
O=C(CN1C(=O)c2cccc([N+](=O)[O-])c2C1=O)NNC(=O)c1ccc(F)cc1,"inconclusive: 10.3 µM [activator, partial curve, poor fit]",
CCOc1cc(C(=O)NC(=S)Nc2cccnc2)cc(OCC)c1OCC,"inconclusive: 29.1 µM [inhibitor, single point]",
Cc1ccc(-n2c(C)cc(/C=C3/C(=N)N4C(c5ccccc5)=CSC4=NC3=O)c2C)cc1,,inactive: 10.4%
O=C(COC(=O)c1c[nH]c2ccccc12)Nc1ccc([N+](=O)[O-])cc1,"inconclusive: 23.1 µM [inhibitor, single point]",
Cc1c(C(=O)NC2CCCC2)oc2ccccc12,"inconclusive: 11.6 µM [activator, partial curve, poor fit]",
CCOC(=O)c1c(-c2ccccc2Cl)csc1NC(=O)c1cc(S(=O)(=O)N2CCOCC2)ccc1C,"inconclusive: 16.4 µM [inhibitor, single point]",
Cc1cc(C)cc(N(CC(=O)NCc2ccc(F)cc2)C(=O)c2snc(C(N)=O)c2N)c1,,inactive: -4.36%
c1ccc(Nc2c(-c3ccco3)nc3ccccn23)cc1,"inconclusive: 9.2 µM [activator, partial curve]",

# An excerpt of these results, tab-delimited.
Structure (SMILES)	Potency	activity change, negative = inhibition
CC(=O)NC(CCS(C)(=O)=O)C(=O)Nc1cccc2ccccc12 (stereo unspecified)	inconclusive: 0.259 µM [activator, full curve, poor fit]	
Cc1c(C#N)c(O)[nH]c(=O)c1N=Nc1ccc(Br)cc1C(=O)O	inconclusive: 9.2 µM [inhibitor, partial curve, poor fit]	
O=C(Nc1ccc(N2CCOCC2)c(Cl)c1)c1ccc(Br)o1	inconclusive: 2.06 µM [activator, partial curve]	
CC(OC(=O)c1oc2ccccc2c1COc1ccccc1)C(N)=O (stereo unspecified)		inactive: 16%
CC(=O)c1ccc(S(=O)(=O)Nc2cccc(-n3cnnn3)c2)cc1		inactive: 14.3%
COc1ccc(-c2cn3c(n2)CCC3)cc1	inconclusive: 9.2 µM [activator, partial curve, poor fit]	
CCN1C(=O)C2(C(C#N)=C(N)Oc3n[nH]c(C(C)C)c32)c2ccccc21 (stereo unspecified)		inactive: 9.79%
COc1ccccc1OCCNC(=O)c1ccccc1C	inconclusive: 14.6 µM [activator, partial curve, poor fit]	
CN(CC(=O)Nc1ccccc1Cl)C(=O)COC(=O)c1nc(Cl)c(Cl)c(Cl)c1Cl	inconclusive: 32.6 µM [inhibitor, single point]	
O=C(CN1C(=O)c2cccc([N+](=O)[O-])c2C1=O)NNC(=O)c1ccc(F)cc1	inconclusive: 10.3 µM [activator, partial curve, poor fit]	
CCOc1cc(C(=O)NC(=S)Nc2cccnc2)cc(OCC)c1OCC	inconclusive: 29.1 µM [inhibitor, single point]	
Cc1ccc(-n2c(C)cc(/C=C3/C(=N)N4C(c5ccccc5)=CSC4=NC3=O)c2C)cc1		inactive: 10.4%
O=C(COC(=O)c1c[nH]c2ccccc12)Nc1ccc([N+](=O)[O-])cc1	inconclusive: 23.1 µM [inhibitor, single point]	
CCOC(=O)c1c(-c2ccccc2Cl)csc1NC(=O)c1cc(S(=O)(=O)N2CCOCC2)ccc1C	inconclusive: 16.4 µM [inhibitor, single point]	
Cc1cc(C)cc(N(CC(=O)NCc2ccc(F)cc2)C(=O)c2snc(C(N)=O)c2N)c1		inactive: -4.36%
c1ccc(Nc2c(-c3ccco3)nc3ccccn23)cc1	inconclusive: 9.2 µM [activator, partial curve]	
